# Data as given in PubChem BioAssay AID1259254 (NCATS, 2017)
# Purpose: 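Gene knock-downs that lead to re-replication, shown by excess G2 DNA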 (primary screen)
# Cell system: human HCT116 colorectal cancer cells
# Knock-down reagent: single siRNA against human genes
# Duration: 3 days
# Read-out: 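Imaged Hoechst DNA stain sorts each cell into a cycle phase by DNA amount; per plate, G2 fraction set to 0% for non-targeting and 100% for GMNN siRNA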
# Reading the numbers: G2 robust z-score and G2 cells, % of GMNN control: higher = more G2 cells, more excess DNA replication; raw share of cells in G2: higher = larger share of cells with G2 DNA content
# Rule for the call: 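An siRNA counts as active if its G2 robust z-score lies at least 5 MADs above the screen median; here such calls match roughly 38% of GMNN control or more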
# In all, the deposit lists about 59,000 reagents; this is a random part of them. About 1,550 of all reagents (2.6%) count as active. 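G2 share is only a proxy for re-replication; each gene was hit by three separate siRNAs, and active genes were retested.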 The raw values are shown without normalisation. Unmarked entries are inactive. Reagents against one gene are numbered here. Not stated in the record: the amount of reagent.
Gene,reagent no.,G2 robust z-score,"G2 cells, % of GMNN control",raw share of cells in G2 (%)
CHRNA3,1,3.42,27,15.1
CHRNA3,2,-0.0626,2.53,5.64
CHRNA3,3,-0.516,-0.662,4.12
CYP2E1,1,0.0947,3.63,5.35
CYP2E1,2,4.88,37.3,18.3
CYP2E1,3,-0.273,1.05,5.38
ASPHD1,1,2.23,18.6,10.3
ASPHD1,2,-0.148,1.93,3.79
ASPHD1,3,-0.603,-1.28,2.79
CCDC61,1,-0.55,-0.903,3.74
CCDC61,2,-0.246,1.24,3.64
CCDC61,3,-0.524,-0.721,2.91
SS18,1,-1.11,-4.83,2.89
SS18,2,0.243,4.68,5.51
SS18,3,3.85,30,15.8
PLA2G2A,1,2.2,18.4,10.8
PLA2G2A,2,-0.494,-0.506,4.15
PLA2G2A,3,5.82 (active),43.9,16.7

Active calls, among the entries above:
Gene,reagent no.,G2 robust z-score,"G2 cells, % of GMNN control",raw share of cells in G2 (%)
PLA2G2A,3,5.82 (active),43.9,16.7

Continued.
Gene,reagent no.,G2 robust z-score,"G2 cells, % of GMNN control",raw share of cells in G2 (%)
INO80D,1,-0.753,-2.33,2.77
INO80D,2,-0.551,-0.907,3.89
INO80D,3,1.76,15.3,8.26
POGLUT3,1,0.125,3.85,5.12
POGLUT3,2,-0.363,0.412,3.04
POGLUT3,3,-0.319,0.725,3.32
WDR3,1,2.47,20.3,13
WDR3,2,1.97,16.8,11.1
WDR3,3,0.801,8.6,6.39
AHCY,1,4.35,33.6,16.5
AHCY,2,2.12,17.9,11.4
AHCY,3,2.31,19.2,11.3
